# The whole screen tested about 340,000 compounds, of which about 170 (0.05%) were called active. Inconclusive means that the source gave no clear call. Such entries were picked first, then a sample of the others. The call rests on the fitted dose curve; in most records, active means well fitted inhibition curve with a large enough effect in the signal ratio, with a control signal flat (not every such curve was filed as active); inconclusive means small, poorly fitted or top-dose-only effect, or effect the other way, or a change in a side signal; inactive means flat fitted curve, though single readings scatter; the % refers to the signal ratio. A potency beside an inconclusive call is a rough fit, not a confirmed value.
# Assay: qHTS Assay to Find Inhibitors of Chronic Active B-Cell Receptor Signaling;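 on activity change, negative = inhibition: plate controls were basal doxycycline-induced cells for no effect and cells given 10 µM MG132 for full effect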
# Settings: ABC-DLBCL IkBa-CBG/CBR reporter, luminescence ratio (green luciferase fused to IkBa over red control in TMD8 lymphoma cells), 4 h; activity change, negative = inhibition: at 46.1 µM (top of the series)
# In short: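 Compounds up to 46 uM were incubated four hours with TMD8 cells whose green CBG68 luciferase is fused to IkappaBalpha; red CBR luminescence normalised the signal, and concentration-effect curves were fitted to fusion, red and ratio data.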
# Potency means the concentration at half of the fitted maximal effect.
SMILES,Potency,"activity change, negative = inhibition"
O=C(OC(C(=O)NCc1cccs1)c1ccc(F)cc1)c1ccco1 (stereo unspecified),"inconclusive: 8.2 µM [rising, partial curve, poor fit]",–
Clc1cccc2sc(N3CCCCC3)nc12,–,inconclusive: 13.1%
COc1ccc(NC(=O)Cc2cccc(F)c2)cc1S(=O)(=O)Nc1ccccc1Cl,–,inactive: -1.64%
Cc1cn(C(=O)c2ccccc2)c(=S)n1-c1ccc(Br)cc1,"inconclusive: 16.4 µM [rising, single point]",–
COc1ccc(CC(=O)Nc2c(C(N)=O)oc3ccccc23)cc1OC,–,inactive: 5.43%
COc1ccc(-c2csc(NC(=O)C3=COCCO3)n2)c(OC)c1,–,inconclusive: -1.42%
Cc1nc2nc(-c3ccc(Cl)cc3)[nH]n2c(=O)c1Cc1ccccc1,"inconclusive: 5.17 µM [falling, full curve]",–
NC(=O)CC(NC(=O)c1ccc(Br)cc1)c1ccc(NCc2ccc(F)cc2)c([N+](=O)[O-])c1 (stereo unspecified),–,inactive: -0.388%
COC(=O)c1ccc2c(=O)n(CCCCCC(=O)NCCc3ccc(Cl)cc3)c(=O)[nH]c2c1,–,inconclusive: 4.27%
CCNc1ccc(C(=O)O)cc1N,"inconclusive: 14.6 µM [falling, partial curve]",–
O=C(NC(=S)NC(c1ccccc1)c1ccncc1)c1ccccc1 (stereo unspecified),–,inconclusive: -19.5%
CCOc1c(Br)cc(C(N)=O)cc1OC,–,inconclusive: 3.08%
CC1CCN(CCOCCOc2ccccc2-c2ccccc2)CC1,–,inactive: -2.72%
CCOc1ccc(S(=O)(=O)Nc2ccc(C(=O)NN)cc2)cc1,"inconclusive: 35.5 µM [falling, single point]",–
COc1ccc(C(=O)CSc2nnc(CNC(=O)c3ccccc3F)n2C)cc1OC,–,inactive: -0.758%
CC(=O)c1c(C)[nH]c(C(=O)OCc2nc3ccsc3c(=O)[nH]2)c1C,–,inconclusive: 7.97%
CCOC(=O)N1CCN(CC(=O)c2ccc(O)cc2O)CC1,–,inactive: 9.65%
CCOC(=O)c1cccc(NC(=O)CN(c2ccc(C)cc2)S(=O)(=O)c2c(C)n[nH]c2C)c1,–,inconclusive: 9.2%
Cc1ccccc1NC(=O)CSc1nc2ccccc2c2nc(CCn3cncc3C)nn12,"inconclusive: 35.5 µM [falling, single point]",–
CS(=O)(=O)N1CCc2cc(C(=O)Nc3cccc([N+](=O)[O-])c3)ccc21,–,inconclusive: 1.57%
Cc1[nH]nc2c1C(C1CC=CCC1)C(C#N)=C(N)O2 (stereo unspecified),"inconclusive: 4.11 µM [falling, single point]",–

# Quoted at random: two compounds from above.
SMILES,Potency,"activity change, negative = inhibition"
COC(=O)c1ccc2c(=O)n(CCCCCC(=O)NCCc3ccc(Cl)cc3)c(=O)[nH]c2c1,–,inconclusive: 4.27%
CCOC(=O)c1cccc(NC(=O)CN(c2ccc(C)cc2)S(=O)(=O)c2c(C)n[nH]c2C)c1,–,inconclusive: 9.2%

# The list continues.

SMILES,Potency,"activity change, negative = inhibition"
O=C(Cc1ccccc1)NNC(=S)NC(=O)c1cccs1,"inconclusive: 31.6 µM [falling, partial curve]",–
CCN(c1cccc(C)c1)S(=O)(=O)c1cc(CN2C(=O)c3cccnc3C2=O)ccc1OC,"inconclusive: 0.1 µM [falling, full curve, poor fit]",–
Cc1ccc(-c2nc(CS(=O)(=O)CC(=O)NC3CCC(C)CC3)c(C)o2)cc1 (stereo unspecified),–,inconclusive: -13.1%
COc1c(Cl)ccc(Cl)c1C(=O)NC(=O)Nc1nc(C)cc(C)n1,–,inconclusive: 7.84%
CCN1CCCC1CNC(=O)c1cc2c(C)nc3ccccc3c2o1 (stereo unspecified),–,inconclusive: 1.8%
O=C1CCCC2=C1C(c1cccc(O)c1)c1c(ccc3ncccc13)N2 (stereo unspecified),"inconclusive: 8.91 µM [falling, partial curve]",–
O=C(c1ccc(Cl)cc1Cl)c1ncc(C(F)(F)F)cc1Cl,–,inactive: -13.7%
NC(=O)COc1ccc(/C=N\NC(=O)c2ccc(-c3ccccc3)cc2)cc1,–,inactive: 2.12%
O/N=C/c1ccc(OCc2ccccc2F)c(Cl)c1,–,inconclusive: -13%
CC1(C)CC2(CC(c3ccccc3)Oc3cc(O)ccc32)NC(=S)N1 (stereo unspecified),–,inactive: -4.27%
Cc1cc(C(=O)OCC(=O)c2ccc(Cl)c([N+](=O)[O-])c2)c2cccc(C)c2n1,–,inactive: -4.33%
CCN(CC)CCCN(Cc1cc2ccc(C)c(C)c2[nH]c1=O)C(=O)NC1CCCCC1,–,inactive: -0.149%
Cc1ccccc1OCc1nc2ccccc2c(=O)n1/N=C/c1cn[nH]c1-c1ccccc1,–,inconclusive: 0.726%
O=[N+]([O-])c1cc(C(F)(F)F)cc([N+](=O)[O-])c1NCCNC(=S)Nc1cccc(F)c1,–,inconclusive: -4.37%
COc1ccc(CC(=O)NCc2n[nH]c(=S)n2-c2ccccc2OC)cc1,"inconclusive: 2.82 µM [falling, partial curve, poor fit]",–
CCN(CC)C(=O)CC(c1ccc2c(c1)OCO2)c1c(OC)cc(OC)c2c(-c3ccccc3)cc(=O)oc12 (stereo unspecified),"inconclusive: 20 µM [falling, partial curve, poor fit]",–
CC(=O)Nc1sc(C)c(C)c1C(=O)OCC(=O)Nc1ccccc1,–,inactive: -2.05%
COc1ccccc1N1CCN(C(c2cccs2)C(C)NC(=O)c2ccco2)CC1 (stereo unspecified),–,inconclusive: 1.8%
CC1CN(S(=O)(=O)c2cccc3nsnc23)CC(C)O1 (stereo unspecified),"inconclusive: 29.1 µM [falling, single point]",–
C=CCNC(=O)c1ccc(C)cc1Cl,–,inconclusive: 1.23%
